From ChEMBL document CHEMBL1155535, “Synthesis and biological evaluation of tricyclic anilinopyrimidines as IKKbeta inhibitors” (Bioorg Med Chem Lett, 2010)
Converted amounts (≈) assume the structure as drawn.

Experiment: Aqueous solubility in at pH 7.4
Conditions: buffer

Question: Which solubility does the source give for `NS(=O)(=O)c1ccc(Nc2nccc(-c3ccsc3)n2)cc1` here?
Answer: 2 µg/mL (≈ 6.02 µM)
